In paper PMC12304134:
No constants are given. Whether binding was seen depends on the method and setting. In cells and extracts the contact can be indirect. Some results given as binding are weak or reduced against the parent protein; the word gives no strength.

Protein sequences, listed by entry. Tags and fused reporters are not part of them. Residues count along the entry.
UniProt P07954, residues 45-510: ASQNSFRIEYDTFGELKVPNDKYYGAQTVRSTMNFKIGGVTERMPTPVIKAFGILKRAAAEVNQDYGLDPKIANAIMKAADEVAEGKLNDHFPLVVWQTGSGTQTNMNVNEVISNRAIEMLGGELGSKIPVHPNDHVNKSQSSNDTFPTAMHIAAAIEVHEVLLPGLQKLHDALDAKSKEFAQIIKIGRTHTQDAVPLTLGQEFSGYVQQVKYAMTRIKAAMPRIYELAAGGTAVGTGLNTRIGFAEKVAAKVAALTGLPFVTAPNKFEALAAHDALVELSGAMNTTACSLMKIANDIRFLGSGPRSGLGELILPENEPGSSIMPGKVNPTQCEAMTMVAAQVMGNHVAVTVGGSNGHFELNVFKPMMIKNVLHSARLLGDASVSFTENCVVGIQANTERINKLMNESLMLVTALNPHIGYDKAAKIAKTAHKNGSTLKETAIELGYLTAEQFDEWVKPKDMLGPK
UniProt Q9UBN7: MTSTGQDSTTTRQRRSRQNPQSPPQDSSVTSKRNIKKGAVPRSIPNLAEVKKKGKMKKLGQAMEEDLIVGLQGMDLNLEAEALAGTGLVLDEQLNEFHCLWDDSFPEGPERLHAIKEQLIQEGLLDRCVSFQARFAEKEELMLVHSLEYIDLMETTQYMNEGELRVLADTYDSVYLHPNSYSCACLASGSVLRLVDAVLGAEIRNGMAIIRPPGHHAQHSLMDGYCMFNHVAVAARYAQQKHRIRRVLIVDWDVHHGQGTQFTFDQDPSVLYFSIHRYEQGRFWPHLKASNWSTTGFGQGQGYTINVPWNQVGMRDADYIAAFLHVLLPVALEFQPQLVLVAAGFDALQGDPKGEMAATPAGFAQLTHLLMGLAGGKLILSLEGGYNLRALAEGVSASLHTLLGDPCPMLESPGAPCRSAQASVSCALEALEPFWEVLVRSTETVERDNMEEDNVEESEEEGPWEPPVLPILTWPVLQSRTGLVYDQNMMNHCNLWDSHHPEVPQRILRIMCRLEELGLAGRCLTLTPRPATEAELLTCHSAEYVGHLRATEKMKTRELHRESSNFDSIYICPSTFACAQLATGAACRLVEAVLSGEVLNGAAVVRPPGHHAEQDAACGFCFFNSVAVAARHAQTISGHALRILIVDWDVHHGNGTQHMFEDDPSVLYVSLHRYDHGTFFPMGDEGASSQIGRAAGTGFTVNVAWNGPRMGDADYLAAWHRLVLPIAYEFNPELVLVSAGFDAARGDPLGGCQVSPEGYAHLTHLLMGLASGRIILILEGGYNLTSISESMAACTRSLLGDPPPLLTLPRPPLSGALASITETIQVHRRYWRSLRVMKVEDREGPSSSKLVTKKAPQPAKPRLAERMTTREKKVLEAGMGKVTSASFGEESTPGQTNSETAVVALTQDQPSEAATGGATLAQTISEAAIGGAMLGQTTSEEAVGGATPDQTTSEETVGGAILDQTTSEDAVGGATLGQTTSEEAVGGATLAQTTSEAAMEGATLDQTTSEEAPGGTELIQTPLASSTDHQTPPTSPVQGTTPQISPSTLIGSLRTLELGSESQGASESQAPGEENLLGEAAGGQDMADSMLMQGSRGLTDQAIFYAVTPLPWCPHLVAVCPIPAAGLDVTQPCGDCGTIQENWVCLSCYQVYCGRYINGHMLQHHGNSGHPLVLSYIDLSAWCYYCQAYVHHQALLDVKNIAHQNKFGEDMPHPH

How the values were obtained:
[1] = target: fumarate hydratase (FH) (human (endogenous in MDA-MB-231 and BT-549)) (UniProt P07954); assay: co-IP; immunoprecipitation of FH from nuclear extracts (NE-PER kit)
[2] = target: fumarate hydratase (FH) (human (endogenous in MDA-MB-231 and BT-549)) (UniProt P07954); assay: co-IP; immunoprecipitation of FH from mitochondrial fractions
[3] = target: fumarate hydratase (FH) (human (endogenous in MDA-MB-231 and BT-549)) (UniProt P07954); assay: co-IP; whole-cell lysates (MDA-MB-231, BT-549) in CHAPS buffer (0.5% CHAPS, 150 mM NaCl, 2 mM EDTA, 15 mM Tris-HCl pH 8, 50 mM DTT); 600 µg protein, FH antibody or IgG mouse control (5 µg) overnight at 4 °C, protein A agarose; Western blot
[4] = target: fumarate hydratase (FH) (human (endogenous in MDA-MB-231 and BT-549)) (UniProt P07954); assay: co-IP; immunoprecipitation of FH from cytosolic fractions, with or without BAS-2 treatment

histone deacetylase 6 (HDAC6) (from UniProt Q9UBN7 1-1215)
binding [1]: binds
binding [2]: binds
binding [3]: binds
binding [4]: binds weakly
